Over roughly 33,000 sequences, “E-score (-0.5 to 0.5)” has its median near -0.016; the highest 2% begin near 0.3. Some of the results follow.
target: T1, Yer184c (UniProt P39961); assay: PBM E-score (8-mer binding enrichment) (E-score (-0.5 to 0.5)); higher = stronger / more preferred TF binding; details: protein concentration: 100 nM; construct: GST-full length
T1 sequence: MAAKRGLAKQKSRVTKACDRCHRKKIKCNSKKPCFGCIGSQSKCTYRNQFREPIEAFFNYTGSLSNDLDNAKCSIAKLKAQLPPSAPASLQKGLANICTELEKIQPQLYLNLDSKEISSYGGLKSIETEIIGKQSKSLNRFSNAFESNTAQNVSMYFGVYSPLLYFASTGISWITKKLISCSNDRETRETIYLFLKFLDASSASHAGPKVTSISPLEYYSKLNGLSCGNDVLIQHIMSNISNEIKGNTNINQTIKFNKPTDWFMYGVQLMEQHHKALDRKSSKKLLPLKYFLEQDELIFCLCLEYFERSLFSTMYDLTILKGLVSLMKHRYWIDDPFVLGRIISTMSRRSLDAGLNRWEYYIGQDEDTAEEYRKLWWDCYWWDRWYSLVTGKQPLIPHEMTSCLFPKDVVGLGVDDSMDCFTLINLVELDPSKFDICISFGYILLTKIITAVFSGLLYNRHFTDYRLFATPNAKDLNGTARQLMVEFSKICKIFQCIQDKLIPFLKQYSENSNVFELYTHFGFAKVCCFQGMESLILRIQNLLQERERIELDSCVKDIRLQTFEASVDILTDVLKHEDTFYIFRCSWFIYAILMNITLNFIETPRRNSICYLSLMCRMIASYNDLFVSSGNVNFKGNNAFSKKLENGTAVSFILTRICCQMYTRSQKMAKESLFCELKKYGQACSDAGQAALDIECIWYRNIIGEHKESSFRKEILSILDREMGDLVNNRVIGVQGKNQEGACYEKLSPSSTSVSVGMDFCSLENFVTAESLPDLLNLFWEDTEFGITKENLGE
Summary of the method: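 For each ungapped eight-base word taken together with its reverse complement, the Universal PBM Analysis Suite assigned an E-score. Binding data came from GST-tagged yeast transcription factors, applied at about 100-200 nM, on universal all-10-mer Agilent arrays made double-stranded by primer extension. Fluorescent anti-GST marked bound protein, and scans were normalised with masliner.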

| Sequence | PBM E-score |
| --- | --- |
| ACCGTCGA | -0.142 |
| GGCGTAAA | 0.163 |
| CGTCGAAG | -0.0753 |
| ACCTGTCG | -0.119 |
| CGTCCATC | 0.0269 |
| CGAAGATC | -0.0716 |
| AGTGGTAA | -0.0307 |
| ACCCGAAA | 0.169 |
| ACGAGGTC | -0.127 |
| GGGTATTA | 0.0826 |
| CATAGAGG | -0.0335 |
| GCGGGTAA | -0.0471 |
| AGCATTAT | -0.0597 |
| GGCCGTAC | 0.145 |
| CGTCATGA | -0.0317 |
| ATACCGAG | 0.117 |
| CTCATTTC | 0.0515 |
| AATTAGGC | 0.115 |
| CGTGAACA | 0.141 |
| ATATGTGC | -0.0304 |
| ATTTGCCC | 0.0315 |
| ACTGGTAC | -0.00757 |
| CCTAATTA | -0.0854 |
| CCCCCATC | -0.296 |
| GTCCTTAA | 0.0174 |

| Sequence | PBM E-score |
| --- | --- |
| AATCCGGC | 0.3 |
| TAGGTCAA | -0.0748 |
| CGTAATAG | 0.0193 |
| ATAGTCTA | -0.134 |
| TCCGTCCA | 0.0919 |
| CCACCTGC | -0.134 |
| CAGTCATC | -0.248 |
| CCTTTCTC | -0.109 |
| CGTACCGA | 0.122 |
| ACAAACAA | 0.156 |
| CTGCATCC | -0.0447 |
| ATATATTC | 0.319 |
| GTTTTGCA | 0.134 |
| AGTTTCTG | 0.109 |
| GAGCTTCA | 0.0556 |
| CGAACGAA | 0.111 |
| AGCTCTCA | -0.0398 |
| GTTTAGTA | 0.129 |
| AAGCTCTG | -0.323 |
| CTAAGCAA | -0.155 |
| ACGAATTG | -0.0627 |
| GATCGAAC | 0.0679 |
| CAAGTTTA | 0.0245 |
| GCGGTTAC | 0.119 |
| CCCAGTGC | -0.113 |

Some of the entries so far, in CSV form:
Sequence,PBM E-score
CTGCATCC,-0.0447
ATATATTC,0.319
GTTTTGCA,0.134

(list continues)

| Sequence | PBM E-score |
| --- | --- |
| GTAGTGGA | 0.177 |
| ACCACTCG | 0.161 |
| CCCTCCTC | -0.294 |
| AGTCTTTG | -0.0401 |
| ATAGCAGC | -0.169 |
| AAATAAGT | 0.0237 |
| ACCCTAGC | -0.109 |
| ATACATAC | -0.0825 |
| ACGGTTAG | -0.121 |
| GCTGAGGA | -0.0891 |
| TAACAGCA | 0.0901 |
| AATCCGAG | 0.114 |
| AGGAATGC | -0.146 |
| AACAGCAC | 0.221 |
| TCTTTCAA | 0.0831 |
| GGCCTTGA | -0.0372 |
| CTTTGACC | 0.139 |
| ACGTACCA | -0.159 |
| AATCTCTC | 0.0453 |
| GCATCGGA | 0.307 |
| CGGATTCA | 0.0382 |
| GACATGAA | -0.00105 |
| CGCTTTCA | 0.092 |
| CGCGCACG | 0.0243 |
| AATACTCG | 0.0254 |

| Sequence | PBM E-score |
| --- | --- |
| CTACAAGA | -0.0493 |
| CGTCTGTC | 0.00557 |
| CTCTAACC | -0.181 |
| CAGCTCCG | 0.222 |
| AACTATAA | 0.0405 |
| TAAGCCTA | 0.00373 |
| CTTCTAAC | -0.0757 |
| CGTAGCAG | -0.101 |
| GGACTTCA | -0.158 |
| ACTTGGCA | -0.165 |
| CGACGCAC | -0.0313 |
| GATGGACC | -0.0249 |
| AGCCTATG | -0.201 |
| GTTCTCAA | 0.0804 |
| ACTACAAG | -0.0232 |
| ACTTCGCG | 0.0108 |
| CTCAGGTC | -0.0546 |
| GCCACCAC | -0.215 |
| CTCAACCC | -0.164 |
| CACTTGCC | -0.14 |
| CATGACCC | -0.322 |
| ATTTATGG | 0.0272 |
| CTGCCTAA | -0.11 |
| GGAACAGA | 0.134 |
| AAGCGTGC | -0.0432 |

| Sequence | PBM E-score |
| --- | --- |
| TCTTTGCA | 0.116 |
| CATGTAGC | -0.241 |
| CCGCAGAA | 0.142 |
| ATGACCCG | -0.197 |
| GCATACGA | -0.0622 |
| CGTTTTCC | 0.0721 |
| CCTCGAAA | 0.165 |
| AAGGAGTA | -0.186 |
| CGAACTTA | 0.161 |
| CGACGTGC | -0.184 |
| ATCGTCTA | -0.106 |
| AATTGTCG | 0.035 |
| TATGGCCA | -0.148 |
| AGTCGACA | 0.0802 |
| CTTAACTC | 0.122 |
| GGCGATGA | -0.23 |
| AGAGCTCT | -0.391 |
| AGCCCGAG | 0.00855 |
| CGGCCAGC | 0.172 |
| ACCAGCAC | -0.205 |
| CCAAGCCG | 0.0585 |
| TAAGTTGA | 0.131 |
| CCCAGAGC | -0.172 |
| GGCATACA | -0.0398 |
| ACAGTCAC | -0.257 |

| Sequence | PBM E-score |
| --- | --- |
| ACTTCCCT | -0.101 |
| CAGGCGTA | -0.00314 |
| GAGTGCCC | -0.181 |
| GGTTCACA | 0.0396 |
| ATCCGCGA | 0.105 |
| AAGGTATA | 0.138 |
| TAAGCGCA | -0.214 |
| ACCAATGG | -0.123 |
| CACCCACC | -0.193 |
| CCCCAGAA | -0.161 |
| ACGACTAG | -0.0136 |
| CATGGCGC | -0.0606 |
| CACGACGC | -0.16 |
| ACGGGGCG | 0.036 |
| CGCCCGCC | 0.0433 |
| AGATTTGC | 0.0379 |
| ATCCATTA | 0.00687 |
| CGCATCCG | 0.185 |
| ATACATCG | 0.0194 |
| AACGCATG | -0.106 |
| AGTGCAGA | -0.153 |
| AACAAGTT | 0.0697 |
| AGGTCGTA | -0.145 |
| ACTCCTCA | -0.0931 |
| AGTACAGC | 0.00983 |

As a working copy, some entries already given.

| Sequence | PBM E-score |
| --- | --- |
| CACCCACC | -0.193 |
| CCCCAGAA | -0.161 |
| ACGACTAG | -0.0136 |
| CATGGCGC | -0.0606 |

(list continues)

| Sequence | PBM E-score |
| --- | --- |
| AAAACCGC | 0.0468 |
| ATACAATC | -0.00013 |
| AAACTCCA | -0.0116 |
| AGTCATGG | -0.00924 |
| ACTACCAG | -0.224 |
| CGTGTGGC | -0.296 |
| CTCACACC | -0.234 |
| AATAAAGT | 0.155 |
| AGAGAATG | 0.0031 |
| TCTATCAA | -0.0404 |
| GCTATGCC | -0.12 |
| CCCTGCTA | -0.272 |
| ATCGCCAA | -0.166 |
| GGGTCGCA | -0.00048 |
| ACCATGCG | -0.0152 |
| CATTGGTA | -0.0178 |
| ATGTCCTC | -0.109 |
| CGCCTATC | -0.183 |
| GCTCTTGA | -0.14 |
| AGTATCCA | -0.00531 |
| ATCAAGAA | 0.00831 |
| AAGATGAA | 0.0422 |
